Values of other authors as cited in patent US20260256731A1, “RETINAL VASODILATOR AND PHARMACEUTICAL COMPOSITION” (TEIKYO UNIVERSITY, priority 2022, published 2026).
Where two headings read alike, the source gives them in different places. At least one structure is not confirmed: it was looked up by name or label, or the drawing left a doubt.

System: retinal blood vessel
Conditions: cited from earlier work

Structure (SMILES)	Maximum vasodilation rate (concentration 3 × 10^-5M) [%]	Maximum vasodilation rate (concentration 10^-5M) [%]
CC(C)OC(=O)C(C)(C)Oc1ccc(C(=O)c2ccc(Cl)cc2)cc1 [Fenofibrate]	50	–
CCc1ccc(CCOc2ccc(CC3SC(=O)NC3=O)cc2)nc1 (stereo not drawn) [Pioglitazone]	–	50
CCC(C)(C)C(=O)O[C@H]1C[C@@H](C)C=C2C=C[C@H](C)[C@H](CC[C@@H]3C[C@@H](O)CC(=O)O3)[C@H]21 [Simvastatin]	–	50
